This note sets out measurements from paper doi:10.1101/2025.08.29.672993.

Chains of the proteins cited; added tags and fusions are not shown. Residues count along the entry.
UniProt P19338, 2-710: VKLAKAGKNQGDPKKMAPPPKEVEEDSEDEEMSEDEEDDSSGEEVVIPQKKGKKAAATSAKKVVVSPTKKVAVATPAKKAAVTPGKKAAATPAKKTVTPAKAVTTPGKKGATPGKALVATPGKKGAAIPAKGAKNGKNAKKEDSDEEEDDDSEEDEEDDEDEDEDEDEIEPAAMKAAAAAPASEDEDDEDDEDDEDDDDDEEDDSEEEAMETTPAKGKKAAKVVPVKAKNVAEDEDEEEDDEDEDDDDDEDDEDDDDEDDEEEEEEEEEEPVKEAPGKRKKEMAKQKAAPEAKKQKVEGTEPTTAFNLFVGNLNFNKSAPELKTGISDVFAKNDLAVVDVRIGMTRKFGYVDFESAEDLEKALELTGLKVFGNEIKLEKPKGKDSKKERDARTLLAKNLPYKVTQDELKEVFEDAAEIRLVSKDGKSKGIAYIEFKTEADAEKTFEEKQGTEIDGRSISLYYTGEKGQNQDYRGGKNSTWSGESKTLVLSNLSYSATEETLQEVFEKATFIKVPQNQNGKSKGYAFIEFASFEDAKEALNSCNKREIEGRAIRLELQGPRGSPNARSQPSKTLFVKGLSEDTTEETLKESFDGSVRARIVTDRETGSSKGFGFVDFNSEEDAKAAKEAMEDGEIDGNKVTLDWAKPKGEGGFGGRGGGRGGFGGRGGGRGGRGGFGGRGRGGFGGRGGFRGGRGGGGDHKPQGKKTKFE
UniProt P35968, 20-1356: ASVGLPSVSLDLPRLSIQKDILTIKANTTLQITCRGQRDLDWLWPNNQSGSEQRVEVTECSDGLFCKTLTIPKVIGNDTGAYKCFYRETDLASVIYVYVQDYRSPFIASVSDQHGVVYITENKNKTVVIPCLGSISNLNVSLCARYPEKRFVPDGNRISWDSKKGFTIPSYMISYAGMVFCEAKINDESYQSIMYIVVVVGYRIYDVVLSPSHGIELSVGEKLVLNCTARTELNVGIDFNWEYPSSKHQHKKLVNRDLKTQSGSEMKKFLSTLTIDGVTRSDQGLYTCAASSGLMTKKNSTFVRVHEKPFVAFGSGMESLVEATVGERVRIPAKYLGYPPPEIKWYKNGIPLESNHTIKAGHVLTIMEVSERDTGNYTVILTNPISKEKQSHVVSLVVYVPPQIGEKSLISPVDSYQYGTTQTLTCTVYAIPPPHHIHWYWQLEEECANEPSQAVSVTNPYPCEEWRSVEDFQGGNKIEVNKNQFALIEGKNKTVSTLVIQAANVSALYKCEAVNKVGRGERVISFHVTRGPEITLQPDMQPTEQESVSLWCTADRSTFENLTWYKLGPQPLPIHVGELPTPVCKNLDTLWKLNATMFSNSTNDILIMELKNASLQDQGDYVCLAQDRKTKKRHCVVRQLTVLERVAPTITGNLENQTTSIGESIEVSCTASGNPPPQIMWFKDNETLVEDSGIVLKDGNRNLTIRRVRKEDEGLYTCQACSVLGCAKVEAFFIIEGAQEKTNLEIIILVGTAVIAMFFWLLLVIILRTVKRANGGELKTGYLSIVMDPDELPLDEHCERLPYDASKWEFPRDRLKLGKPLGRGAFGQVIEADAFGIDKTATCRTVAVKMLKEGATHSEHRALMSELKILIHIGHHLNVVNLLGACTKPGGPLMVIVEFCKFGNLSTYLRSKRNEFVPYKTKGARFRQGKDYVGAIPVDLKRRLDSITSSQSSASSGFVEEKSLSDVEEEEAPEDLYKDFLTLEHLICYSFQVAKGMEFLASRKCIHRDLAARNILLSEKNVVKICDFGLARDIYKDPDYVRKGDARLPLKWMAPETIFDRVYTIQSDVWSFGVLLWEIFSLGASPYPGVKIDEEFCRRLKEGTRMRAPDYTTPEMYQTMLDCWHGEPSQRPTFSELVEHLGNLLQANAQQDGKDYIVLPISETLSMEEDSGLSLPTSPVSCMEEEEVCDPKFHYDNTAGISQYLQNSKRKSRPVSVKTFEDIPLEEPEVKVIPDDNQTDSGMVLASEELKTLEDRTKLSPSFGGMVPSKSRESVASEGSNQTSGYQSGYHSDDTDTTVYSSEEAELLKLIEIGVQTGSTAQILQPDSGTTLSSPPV
UniProt P08581, 25-1390: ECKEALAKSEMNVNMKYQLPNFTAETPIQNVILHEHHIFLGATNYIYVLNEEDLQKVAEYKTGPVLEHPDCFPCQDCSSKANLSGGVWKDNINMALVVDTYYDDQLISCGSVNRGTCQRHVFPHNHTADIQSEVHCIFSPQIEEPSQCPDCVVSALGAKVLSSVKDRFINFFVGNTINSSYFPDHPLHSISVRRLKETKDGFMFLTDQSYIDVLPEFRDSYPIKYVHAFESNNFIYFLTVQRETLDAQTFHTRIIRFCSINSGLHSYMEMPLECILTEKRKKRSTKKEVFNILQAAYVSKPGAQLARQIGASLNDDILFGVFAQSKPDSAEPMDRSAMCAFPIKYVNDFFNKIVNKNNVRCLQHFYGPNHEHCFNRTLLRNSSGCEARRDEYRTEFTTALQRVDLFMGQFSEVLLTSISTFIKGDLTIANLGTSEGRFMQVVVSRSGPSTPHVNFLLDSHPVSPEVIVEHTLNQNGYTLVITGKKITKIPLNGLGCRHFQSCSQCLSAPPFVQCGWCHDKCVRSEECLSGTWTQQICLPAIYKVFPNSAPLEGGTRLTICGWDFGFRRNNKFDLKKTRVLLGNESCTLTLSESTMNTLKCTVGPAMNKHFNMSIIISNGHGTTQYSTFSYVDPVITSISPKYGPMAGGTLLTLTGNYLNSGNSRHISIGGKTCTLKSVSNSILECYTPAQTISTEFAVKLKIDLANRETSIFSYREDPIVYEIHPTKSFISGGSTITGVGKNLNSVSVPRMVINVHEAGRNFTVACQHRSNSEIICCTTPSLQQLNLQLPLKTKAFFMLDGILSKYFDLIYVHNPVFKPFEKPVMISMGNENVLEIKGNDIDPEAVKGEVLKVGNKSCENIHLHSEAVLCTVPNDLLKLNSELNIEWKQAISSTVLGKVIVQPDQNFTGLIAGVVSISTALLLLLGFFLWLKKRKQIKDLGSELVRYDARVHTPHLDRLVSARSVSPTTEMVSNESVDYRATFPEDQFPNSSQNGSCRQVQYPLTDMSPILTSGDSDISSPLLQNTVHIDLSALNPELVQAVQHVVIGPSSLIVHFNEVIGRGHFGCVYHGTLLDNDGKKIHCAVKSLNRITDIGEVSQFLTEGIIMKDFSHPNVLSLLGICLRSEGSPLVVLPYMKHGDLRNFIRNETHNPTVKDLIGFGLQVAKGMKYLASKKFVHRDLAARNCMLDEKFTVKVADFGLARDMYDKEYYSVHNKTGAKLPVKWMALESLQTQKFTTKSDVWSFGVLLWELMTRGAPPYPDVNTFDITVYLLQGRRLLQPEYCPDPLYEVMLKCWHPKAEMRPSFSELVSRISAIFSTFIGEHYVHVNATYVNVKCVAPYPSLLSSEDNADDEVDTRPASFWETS

Holding throughout (assay): biotin-streptavidin pull-down
Data set [1] concerns the target Nucleolin (NCL), endogenous, RA-FLS (UniProt P19338). To be noted: RA-FLS, 1 uM, 8 h; protein in an extract.
In data set [2] the target is Nucleolin (NCL), endogenous, U-2 OS (UniProt P19338). The conditions noted are these: U-2 OS, 8 h; protein in an extract; single-stranded DNA.
Data set [3] addresses Nucleolin (NCL), endogenous, HeLa (UniProt P19338). To be noted: HeLa; protein in an extract; single-stranded DNA.
For data set [4], the target named is VEGFR-2, endogenous, RA-FLS (UniProt P35968). The conditions noted are these: RA-FLS, 1 uM, 8 h; protein in an extract.
The next data set has as its target c-Met, endogenous, HeLa (UniProt P08581). To be noted: HeLa; protein in an extract; single-stranded DNA.
Data set [5] concerns the target c-Met, endogenous, U-2 OS (UniProt P08581). To be noted: U-2 OS; protein in an extract; single-stranded DNA.

Results from cells or extracts need not show a direct contact. For some of these results: Negatives hold for the conditions tested. For some of these results: The exact form of at least one protein or probe is not confirmed.

As to “CCGGCTGCTGCGGCATCGGGCTAGATATCGAT [SAPT8]”, the binding result in data set [1] is “binds”; in data set [2], “binds”; in data set [3], “binds”; in data set [4], “no binding”; in the data set with c-Met, endogenous, HeLa, “no binding”; in data set [5], “no binding”.

In the case of “GGAATTCCCGGTGCGCCGATCGCCGGATATAACTT [NC]”, the binding result in data set [2] is “no binding”.
